Reference: article PMC6025110
No constants are given. Whether binding was seen depends on the method and setting. In cells and extracts the contact can be indirect. A yes stands for co-enrichment or nearness to the bait. Other partners may have been found.

Protein sequences, listed by entry. Tags and fused reporters are not part of them. Residues count along the entry.
UniProt Q14667, residues 32-2235: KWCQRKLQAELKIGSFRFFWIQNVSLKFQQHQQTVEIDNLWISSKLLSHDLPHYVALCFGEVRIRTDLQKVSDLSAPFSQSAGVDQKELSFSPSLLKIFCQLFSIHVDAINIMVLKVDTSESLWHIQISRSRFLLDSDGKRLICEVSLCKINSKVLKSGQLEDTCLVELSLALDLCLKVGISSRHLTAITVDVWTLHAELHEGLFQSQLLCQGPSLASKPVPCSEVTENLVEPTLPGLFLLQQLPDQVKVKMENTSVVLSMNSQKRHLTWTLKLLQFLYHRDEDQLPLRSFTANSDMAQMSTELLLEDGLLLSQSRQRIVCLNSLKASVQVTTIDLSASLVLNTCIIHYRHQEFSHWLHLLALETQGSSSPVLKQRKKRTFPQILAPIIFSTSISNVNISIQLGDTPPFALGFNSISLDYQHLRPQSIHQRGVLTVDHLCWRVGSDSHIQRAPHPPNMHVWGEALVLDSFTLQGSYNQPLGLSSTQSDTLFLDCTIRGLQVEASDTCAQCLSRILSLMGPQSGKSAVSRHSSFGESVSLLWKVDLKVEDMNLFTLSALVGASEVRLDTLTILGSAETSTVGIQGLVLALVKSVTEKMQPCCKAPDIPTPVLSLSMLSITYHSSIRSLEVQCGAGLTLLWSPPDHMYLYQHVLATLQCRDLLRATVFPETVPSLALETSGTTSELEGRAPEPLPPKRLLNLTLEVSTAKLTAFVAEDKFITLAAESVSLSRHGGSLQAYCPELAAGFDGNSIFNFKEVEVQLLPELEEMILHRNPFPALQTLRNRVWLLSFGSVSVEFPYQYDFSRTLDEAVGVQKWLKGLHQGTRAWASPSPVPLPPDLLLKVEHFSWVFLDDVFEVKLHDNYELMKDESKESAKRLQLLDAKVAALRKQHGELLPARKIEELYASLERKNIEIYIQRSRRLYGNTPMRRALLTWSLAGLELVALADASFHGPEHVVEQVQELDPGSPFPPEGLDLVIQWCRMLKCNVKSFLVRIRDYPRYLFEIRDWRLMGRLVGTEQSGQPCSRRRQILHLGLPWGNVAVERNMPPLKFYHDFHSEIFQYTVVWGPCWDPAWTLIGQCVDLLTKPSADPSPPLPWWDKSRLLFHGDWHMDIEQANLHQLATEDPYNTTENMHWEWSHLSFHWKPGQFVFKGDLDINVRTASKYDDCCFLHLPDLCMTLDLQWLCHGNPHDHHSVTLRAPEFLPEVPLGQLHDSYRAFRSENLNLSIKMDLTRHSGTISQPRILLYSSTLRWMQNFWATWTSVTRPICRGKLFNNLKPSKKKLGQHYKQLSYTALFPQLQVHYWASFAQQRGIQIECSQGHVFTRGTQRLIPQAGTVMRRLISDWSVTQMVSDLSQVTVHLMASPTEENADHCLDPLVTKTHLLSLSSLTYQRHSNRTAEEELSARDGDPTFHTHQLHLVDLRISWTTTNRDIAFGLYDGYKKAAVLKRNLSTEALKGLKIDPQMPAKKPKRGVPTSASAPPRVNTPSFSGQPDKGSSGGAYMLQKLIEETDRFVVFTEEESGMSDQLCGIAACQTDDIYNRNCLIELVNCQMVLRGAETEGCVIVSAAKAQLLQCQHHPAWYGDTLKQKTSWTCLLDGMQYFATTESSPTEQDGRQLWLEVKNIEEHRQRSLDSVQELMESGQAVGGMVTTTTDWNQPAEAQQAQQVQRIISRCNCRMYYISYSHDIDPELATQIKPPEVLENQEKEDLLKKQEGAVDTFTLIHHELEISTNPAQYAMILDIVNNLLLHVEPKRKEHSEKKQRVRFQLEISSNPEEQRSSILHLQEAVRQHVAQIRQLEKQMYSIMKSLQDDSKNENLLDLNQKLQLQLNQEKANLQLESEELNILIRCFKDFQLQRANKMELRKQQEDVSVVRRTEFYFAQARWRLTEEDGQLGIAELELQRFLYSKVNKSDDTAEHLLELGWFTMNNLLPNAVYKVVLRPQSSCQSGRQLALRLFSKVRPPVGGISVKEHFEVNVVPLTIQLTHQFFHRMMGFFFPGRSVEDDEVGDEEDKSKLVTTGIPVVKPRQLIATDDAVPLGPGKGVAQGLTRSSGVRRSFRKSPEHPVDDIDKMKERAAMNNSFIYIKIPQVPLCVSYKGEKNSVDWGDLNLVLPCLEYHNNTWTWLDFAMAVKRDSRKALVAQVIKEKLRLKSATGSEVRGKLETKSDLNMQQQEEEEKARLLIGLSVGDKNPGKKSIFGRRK
UniProt P0DMV8: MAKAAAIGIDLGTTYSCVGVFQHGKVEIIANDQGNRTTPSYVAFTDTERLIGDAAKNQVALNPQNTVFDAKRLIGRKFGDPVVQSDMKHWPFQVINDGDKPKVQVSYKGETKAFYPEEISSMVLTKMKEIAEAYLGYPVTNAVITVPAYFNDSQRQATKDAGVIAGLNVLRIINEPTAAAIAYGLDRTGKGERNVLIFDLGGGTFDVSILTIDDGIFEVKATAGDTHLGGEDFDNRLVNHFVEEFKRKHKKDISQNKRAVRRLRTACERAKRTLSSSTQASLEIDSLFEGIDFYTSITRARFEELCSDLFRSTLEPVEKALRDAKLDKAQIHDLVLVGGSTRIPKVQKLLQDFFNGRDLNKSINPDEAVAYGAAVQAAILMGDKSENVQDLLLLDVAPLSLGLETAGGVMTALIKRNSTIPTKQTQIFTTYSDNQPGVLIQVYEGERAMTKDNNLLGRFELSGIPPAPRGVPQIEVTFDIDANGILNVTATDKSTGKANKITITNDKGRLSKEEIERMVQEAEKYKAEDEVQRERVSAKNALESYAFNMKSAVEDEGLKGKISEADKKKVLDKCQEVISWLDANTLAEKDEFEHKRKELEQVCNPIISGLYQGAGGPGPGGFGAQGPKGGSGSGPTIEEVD

Biological target: recombinant KIAA0100 protein with FLAG and Myc tags on its C-terminus (human) (UniProt Q14667)
Experiment: affinity purification with mass spectrometry; HEK293/pKIA cells cross-linked with DTBP, lysed; recombinant KIAA0100 captured by anti-FLAG antibody; SDS-PAGE, coomassie, six gel slices (S1-S6) analysed by mass spectrometry; controls anti-DIG isotype antibody and bare beads

binding: binds
Substance: HSPA1A (from UniProt P0DMV8 1-641)
